The list shows a part of the results. Most entries show no effect beyond the scatter of the controls.
compound: CN[C@@H]1C[C@H]2O[C@@](C)([C@@H]1OC)n1c3ccccc3c3c4c(c5c6ccccc6n2c5c31)C(=O)NC4 [staurosporine]; test: log2 fold change of tryptic peptide abundance, ligand vs vehicle (limited proteolysis) (log2 ratio); higher = more trypsin-susceptible (destabilized); conditions: ligand concentration: 20 uM; sample: K562 cleared lysate; digestion: 4 min, 22 C (HT-PELSA RT4min, Orbitrap Astral)

Protein sequences, listed by entry. Tags and fused reporters are not part of them. Lines headed by an entry give the natural chain unless they say otherwise; changes in a name come on top.
UniProt Q9NW82: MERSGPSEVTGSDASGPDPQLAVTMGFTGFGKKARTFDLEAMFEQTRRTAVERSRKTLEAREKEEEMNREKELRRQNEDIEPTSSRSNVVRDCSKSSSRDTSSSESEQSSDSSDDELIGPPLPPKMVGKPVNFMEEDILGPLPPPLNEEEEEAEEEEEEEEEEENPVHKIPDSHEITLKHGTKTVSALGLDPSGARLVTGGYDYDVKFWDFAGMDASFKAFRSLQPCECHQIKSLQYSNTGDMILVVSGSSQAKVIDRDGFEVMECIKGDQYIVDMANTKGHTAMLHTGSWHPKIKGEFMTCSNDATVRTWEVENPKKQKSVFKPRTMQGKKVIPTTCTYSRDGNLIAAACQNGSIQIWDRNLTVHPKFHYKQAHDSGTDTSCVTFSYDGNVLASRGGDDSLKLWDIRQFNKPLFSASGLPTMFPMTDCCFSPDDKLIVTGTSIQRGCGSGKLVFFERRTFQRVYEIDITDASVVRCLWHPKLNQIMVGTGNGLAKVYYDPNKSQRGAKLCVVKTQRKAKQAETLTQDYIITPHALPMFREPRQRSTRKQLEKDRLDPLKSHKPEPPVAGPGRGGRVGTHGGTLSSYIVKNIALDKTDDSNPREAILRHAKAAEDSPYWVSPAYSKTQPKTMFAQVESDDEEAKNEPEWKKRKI
UniProt Q9NRJ4: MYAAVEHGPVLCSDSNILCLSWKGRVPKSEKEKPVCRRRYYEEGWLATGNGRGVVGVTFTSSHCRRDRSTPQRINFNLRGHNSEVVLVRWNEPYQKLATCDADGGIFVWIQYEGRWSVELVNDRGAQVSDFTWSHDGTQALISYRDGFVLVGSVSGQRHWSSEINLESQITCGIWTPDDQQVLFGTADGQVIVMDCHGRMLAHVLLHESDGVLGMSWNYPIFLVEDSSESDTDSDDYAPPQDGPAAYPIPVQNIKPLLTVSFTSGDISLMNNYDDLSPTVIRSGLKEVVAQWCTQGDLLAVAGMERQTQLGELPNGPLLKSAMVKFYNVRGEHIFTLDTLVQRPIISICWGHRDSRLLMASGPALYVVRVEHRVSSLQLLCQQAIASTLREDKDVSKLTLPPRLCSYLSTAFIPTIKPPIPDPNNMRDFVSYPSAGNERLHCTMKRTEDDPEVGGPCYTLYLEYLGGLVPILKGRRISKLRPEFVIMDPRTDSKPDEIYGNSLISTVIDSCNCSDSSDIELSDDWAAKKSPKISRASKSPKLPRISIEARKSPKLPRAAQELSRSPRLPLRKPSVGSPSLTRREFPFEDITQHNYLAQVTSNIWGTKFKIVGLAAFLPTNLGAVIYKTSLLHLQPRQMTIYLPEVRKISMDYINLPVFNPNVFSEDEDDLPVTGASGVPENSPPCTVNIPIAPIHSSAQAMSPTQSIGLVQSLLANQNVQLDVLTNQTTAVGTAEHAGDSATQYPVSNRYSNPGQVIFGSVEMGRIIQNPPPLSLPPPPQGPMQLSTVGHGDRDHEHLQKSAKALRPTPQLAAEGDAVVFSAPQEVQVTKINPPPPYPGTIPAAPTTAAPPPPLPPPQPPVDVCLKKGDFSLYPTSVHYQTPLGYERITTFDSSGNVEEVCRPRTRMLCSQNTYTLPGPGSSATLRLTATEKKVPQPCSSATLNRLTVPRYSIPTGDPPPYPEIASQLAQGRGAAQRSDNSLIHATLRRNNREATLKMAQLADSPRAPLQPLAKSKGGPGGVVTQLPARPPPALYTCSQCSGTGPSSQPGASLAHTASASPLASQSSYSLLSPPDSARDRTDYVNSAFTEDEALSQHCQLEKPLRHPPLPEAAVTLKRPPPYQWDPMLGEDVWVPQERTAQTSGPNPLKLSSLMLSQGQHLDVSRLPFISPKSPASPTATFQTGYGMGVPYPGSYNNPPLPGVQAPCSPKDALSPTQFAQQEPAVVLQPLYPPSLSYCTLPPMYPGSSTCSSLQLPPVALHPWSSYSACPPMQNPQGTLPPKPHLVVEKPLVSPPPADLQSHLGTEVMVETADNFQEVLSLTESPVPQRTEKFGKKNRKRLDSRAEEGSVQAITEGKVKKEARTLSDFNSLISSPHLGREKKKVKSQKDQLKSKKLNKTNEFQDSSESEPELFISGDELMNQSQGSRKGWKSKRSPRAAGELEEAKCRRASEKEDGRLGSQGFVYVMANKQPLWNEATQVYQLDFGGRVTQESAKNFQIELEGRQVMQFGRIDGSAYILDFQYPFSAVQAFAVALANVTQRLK
UniProt Q9NYV6: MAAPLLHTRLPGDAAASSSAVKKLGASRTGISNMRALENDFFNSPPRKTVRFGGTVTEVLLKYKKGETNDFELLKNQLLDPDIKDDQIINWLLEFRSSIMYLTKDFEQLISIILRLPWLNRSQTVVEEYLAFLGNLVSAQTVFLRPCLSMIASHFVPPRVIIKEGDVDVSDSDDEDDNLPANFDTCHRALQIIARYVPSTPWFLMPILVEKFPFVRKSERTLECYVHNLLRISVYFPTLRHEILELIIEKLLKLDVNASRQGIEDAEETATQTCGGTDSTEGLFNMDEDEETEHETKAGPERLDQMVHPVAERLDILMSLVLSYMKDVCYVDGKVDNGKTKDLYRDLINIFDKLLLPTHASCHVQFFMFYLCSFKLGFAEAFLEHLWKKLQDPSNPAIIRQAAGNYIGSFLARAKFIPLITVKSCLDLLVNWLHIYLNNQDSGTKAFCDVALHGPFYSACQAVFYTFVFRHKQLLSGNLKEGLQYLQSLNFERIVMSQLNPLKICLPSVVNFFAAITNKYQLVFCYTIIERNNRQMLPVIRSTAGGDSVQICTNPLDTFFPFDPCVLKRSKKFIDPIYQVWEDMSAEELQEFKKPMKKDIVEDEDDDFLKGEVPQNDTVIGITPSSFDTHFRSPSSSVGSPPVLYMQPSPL
UniProt Q9NXH8: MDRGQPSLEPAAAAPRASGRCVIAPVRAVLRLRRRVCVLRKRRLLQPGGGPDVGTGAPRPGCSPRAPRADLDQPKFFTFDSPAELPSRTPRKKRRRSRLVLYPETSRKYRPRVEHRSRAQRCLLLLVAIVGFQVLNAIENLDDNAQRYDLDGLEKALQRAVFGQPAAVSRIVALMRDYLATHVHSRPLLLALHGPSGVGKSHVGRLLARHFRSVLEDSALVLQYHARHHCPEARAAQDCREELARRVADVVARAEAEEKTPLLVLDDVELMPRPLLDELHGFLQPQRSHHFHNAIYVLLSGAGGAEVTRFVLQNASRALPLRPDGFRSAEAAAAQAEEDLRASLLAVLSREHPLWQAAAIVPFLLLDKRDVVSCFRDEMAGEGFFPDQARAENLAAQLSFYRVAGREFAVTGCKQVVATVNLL
UniProt Q9NWX6: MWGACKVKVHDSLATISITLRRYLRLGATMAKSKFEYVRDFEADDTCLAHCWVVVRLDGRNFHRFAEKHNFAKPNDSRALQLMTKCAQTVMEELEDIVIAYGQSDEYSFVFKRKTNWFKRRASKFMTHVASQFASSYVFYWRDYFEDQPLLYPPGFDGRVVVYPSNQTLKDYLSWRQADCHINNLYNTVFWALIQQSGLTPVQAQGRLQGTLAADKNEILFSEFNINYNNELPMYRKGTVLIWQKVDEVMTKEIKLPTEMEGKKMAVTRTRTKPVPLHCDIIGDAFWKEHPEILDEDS
UniProt Q9NYA1, whole entry: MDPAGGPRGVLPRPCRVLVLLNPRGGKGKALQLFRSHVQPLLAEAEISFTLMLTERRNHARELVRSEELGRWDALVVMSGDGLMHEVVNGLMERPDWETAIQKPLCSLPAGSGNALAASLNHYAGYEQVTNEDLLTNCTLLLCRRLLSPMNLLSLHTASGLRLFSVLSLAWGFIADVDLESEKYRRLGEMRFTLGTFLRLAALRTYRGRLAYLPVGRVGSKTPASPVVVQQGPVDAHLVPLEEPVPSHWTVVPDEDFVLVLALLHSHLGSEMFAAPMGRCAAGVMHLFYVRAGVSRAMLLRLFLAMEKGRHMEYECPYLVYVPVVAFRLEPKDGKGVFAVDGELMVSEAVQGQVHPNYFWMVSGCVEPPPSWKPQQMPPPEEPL
UniProt Q9NY97: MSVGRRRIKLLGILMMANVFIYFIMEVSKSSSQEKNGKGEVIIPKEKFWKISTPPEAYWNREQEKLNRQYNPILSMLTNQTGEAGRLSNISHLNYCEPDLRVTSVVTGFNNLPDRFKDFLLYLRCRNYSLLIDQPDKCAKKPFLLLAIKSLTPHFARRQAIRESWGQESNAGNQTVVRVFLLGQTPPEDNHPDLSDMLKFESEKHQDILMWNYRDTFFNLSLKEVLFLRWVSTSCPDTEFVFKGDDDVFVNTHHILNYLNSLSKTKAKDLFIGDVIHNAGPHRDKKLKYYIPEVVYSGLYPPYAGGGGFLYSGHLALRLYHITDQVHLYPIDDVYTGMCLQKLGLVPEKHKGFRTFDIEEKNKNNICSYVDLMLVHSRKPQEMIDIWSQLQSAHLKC
UniProt Q9NR30: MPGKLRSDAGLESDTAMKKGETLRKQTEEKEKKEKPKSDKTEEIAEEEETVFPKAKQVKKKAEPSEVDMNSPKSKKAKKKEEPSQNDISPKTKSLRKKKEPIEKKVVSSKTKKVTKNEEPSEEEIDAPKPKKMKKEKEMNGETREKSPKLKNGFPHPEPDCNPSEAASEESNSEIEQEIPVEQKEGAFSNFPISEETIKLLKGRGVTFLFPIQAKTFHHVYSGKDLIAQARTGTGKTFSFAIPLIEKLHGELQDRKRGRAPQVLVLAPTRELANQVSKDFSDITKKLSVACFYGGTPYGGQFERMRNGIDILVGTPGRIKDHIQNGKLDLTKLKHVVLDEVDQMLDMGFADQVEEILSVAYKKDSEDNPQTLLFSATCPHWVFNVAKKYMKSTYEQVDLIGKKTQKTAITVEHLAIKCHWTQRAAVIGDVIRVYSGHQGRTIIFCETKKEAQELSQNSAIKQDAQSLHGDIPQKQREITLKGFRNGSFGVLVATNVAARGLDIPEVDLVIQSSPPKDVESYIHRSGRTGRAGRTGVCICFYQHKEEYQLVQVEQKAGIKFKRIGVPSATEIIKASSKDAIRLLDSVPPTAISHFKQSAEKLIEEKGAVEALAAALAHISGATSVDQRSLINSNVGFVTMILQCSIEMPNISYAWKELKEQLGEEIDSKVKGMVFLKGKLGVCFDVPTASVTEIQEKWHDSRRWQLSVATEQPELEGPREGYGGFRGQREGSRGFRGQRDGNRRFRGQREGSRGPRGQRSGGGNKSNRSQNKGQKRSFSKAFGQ
UniProt Q9NWY4: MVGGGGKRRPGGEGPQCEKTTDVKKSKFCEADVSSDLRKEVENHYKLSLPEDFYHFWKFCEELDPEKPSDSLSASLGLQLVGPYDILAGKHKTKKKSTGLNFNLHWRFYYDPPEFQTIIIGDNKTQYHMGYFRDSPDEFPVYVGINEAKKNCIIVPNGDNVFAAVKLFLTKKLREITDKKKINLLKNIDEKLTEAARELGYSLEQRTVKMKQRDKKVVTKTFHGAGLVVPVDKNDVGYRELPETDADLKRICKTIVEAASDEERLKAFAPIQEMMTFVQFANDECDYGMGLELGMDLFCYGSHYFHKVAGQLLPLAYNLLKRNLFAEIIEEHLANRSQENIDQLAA
UniProt Q9NWZ5: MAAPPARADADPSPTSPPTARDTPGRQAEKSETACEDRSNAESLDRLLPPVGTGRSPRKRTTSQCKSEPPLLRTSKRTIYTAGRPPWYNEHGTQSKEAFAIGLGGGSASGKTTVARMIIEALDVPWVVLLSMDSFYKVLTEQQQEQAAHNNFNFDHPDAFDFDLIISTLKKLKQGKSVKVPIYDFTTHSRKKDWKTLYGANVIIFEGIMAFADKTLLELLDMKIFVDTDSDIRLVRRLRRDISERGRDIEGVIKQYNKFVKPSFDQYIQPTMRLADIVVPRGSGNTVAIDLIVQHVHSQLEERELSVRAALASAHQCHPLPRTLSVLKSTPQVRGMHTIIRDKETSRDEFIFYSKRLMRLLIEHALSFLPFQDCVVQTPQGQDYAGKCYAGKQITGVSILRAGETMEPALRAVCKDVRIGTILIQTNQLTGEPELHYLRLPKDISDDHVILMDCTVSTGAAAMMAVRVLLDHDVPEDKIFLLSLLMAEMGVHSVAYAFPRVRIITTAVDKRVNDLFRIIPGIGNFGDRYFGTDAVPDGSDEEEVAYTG

| Target | log2 fold change |
| --- | --- |
| WDR70 (peptide sequence: QNEDIEPTSSR, peptide start residue: 76) (UniProt Q9NW82) | -0.15 |
| MRPL22 (peptide sequence: EYIQQLR, peptide start residue: 192) (UniProt Q9NWU5) | -0.195 |
| UniProt Q9NRJ4 (peptide sequence: TAQTSGPNPLK, peptide start residue: 1139) | 0.463 |
| RRN3 (peptide sequence: LPGDAAASSSAVKK, peptide start residue: 10) (UniProt Q9NYV6) | 0.27 |
| UniProt Q9NXH8 (peptide sequence: SVLEDSALVLQYHAR, peptide start residue: 213) | 0.15 |
| THG1L (peptide sequence: LPTEMEGKK, peptide start residue: 256) (UniProt Q9NWX6) | -0.115 |
| SPHK1 (peptide sequence: CAAGVMHLFYVRAGVSR, peptide start residue: 280) (UniProt Q9NYA1) | -0.148 |
| B3GNT2 (peptide sequence: DLFIGDVIHNAGPHR, peptide start residue: 269) (UniProt Q9NY97) | 0.297 |
| DDX21 (peptide sequence: LHGELQDR, peptide start residue: 248) (UniProt Q9NR30) | 0.201 |
| UniProt Q9NWY4 (peptide sequence: RPGGEGPQCEKTTDVK, peptide start residue: 9) | -0.348 |
| UCKL1 (peptide sequence: QAEKSETACEDRSNAESLDR, peptide start residue: 27) (UniProt Q9NWZ5) | -1.23 |

Part of the list above, set out differently.
UniProt Q9NRJ4 (peptide sequence: TAQTSGPNPLK, peptide start residue: 1139)
  log2 fold change: 0.463
SPHK1 (peptide sequence: CAAGVMHLFYVRAGVSR, peptide start residue: 280) (UniProt Q9NYA1)
  log2 fold change: -0.148

— the supplement of paper PMC12819154, “High-throughput peptide-centric local stability assay extends protein–ligand identification to membrane proteins, tissues and bacteria” (Nature Structural & Molecular Biology, 2025)
